Laboratory results as given in PubChem BioAssay AID540276 (National Center for Advancing Translational Sciences (NCATS), 2011).
The whole screen tested about 300,000 compounds, of which about 5,400 (1.8%) were called active. The shares of active, inactive and inconclusive entries below differ from those in the screen. The call rests on the fitted dose curve; tested in HEK293 cells. Where the call is inconclusive, the potency comes from a doubtful curve fit.

Experiment: qHTS for inhibitors of binding or entry into cells for Marburg Virus
Conditions: Marburg virus pseudotyped entry inhibition, cell reporter; activity change, negative = inhibition: at 37.8 µM (top of the series) unless noted
On the % scale 0 is the no-effect control and ±100 the full control effect; potency means the concentration at half of the fitted maximal effect.

For `CC1Sc2ccc(S(=O)(=O)N3CCC(C(=O)N(C)Cc4ccccc4)CC3)cc2NC1=O` (centres undefined), which Potency is on record?
The Potency was inconclusive: 3.55 µM [inhibitor, partial curve, poor fit].

For `Cc1ccc(NNS(=O)(=O)c2ccc(C)cc2)cc1`, which Potency is on record?
The Potency was inconclusive: 5.01 µM [activator, partial curve, poor fit].

For `COc1ccc(C=CC(=O)C=CC=Cc2ccccc2)cc1`, which Potency is on record?
Its Potency is inconclusive: 3.98 µM [inhibitor, partial curve, poor fit].

For `CC(C)NC(=O)C1CCN(c2ccc(S(=O)(=O)N3CCOCC3)cc2Cl)CC1`, which “activity change, negative = inhibition” value is on record?
Its value is inactive: 1.12% [at 46.1 µM].

For `Cc1cn(C(=O)c2ccccc2)c(=S)n1-c1ccc(Cl)cc1`, which Potency is on record?
Its Potency is inconclusive: 2.59 µM [inhibitor, full curve].

For `O=C(Nc1nc2c(s1)CN(Cc1ccccc1)CC2)c1c(F)cccc1F`, which Potency is on record?
The Potency was inconclusive: 5.01 µM [activator, single point].

Which Potency does the source give for `Cc1ccc(C2=NC(c3ccccc3)=Nc3ccc(Cl)cc3N2)cc1` here?
The Potency was inconclusive: 8.91 µM [activator, single point].

With `CC1C/C(=N\NC(=O)c2ccc(NS(=O)(=O)c3ccc(Br)cc3)cc2)CC(C)(C)C1` (centres undefined) as the compound, how does the “activity change, negative = inhibition” value read?
Its value is inactive: 0.603%.

Which Potency does the source give for `COC(=O)Cc1c(C)c2ccc(OCC(=O)N(C)C)cc2oc1=O` here?
Its Potency is inconclusive: 2.06 µM [activator, full curve].

Which Potency does the source give for `Cn1nnc(NC(=O)c2ccc3ccccc3c2)n1` here?
Its Potency is inconclusive: 14.1 µM [activator, partial curve, poor fit].

Which Potency does the source give for `O=C(/C=C/c1cn(-c2ccccc2)nc1-c1ccc2c(c1)OCCO2)NCCCN1CCOCC1` here?
Its Potency is active: 3.55 µM.

With `C=CC(=O)N1c2ccccc2Sc2ccc(NC(=O)OCC)cc21` as the compound, how does the Potency read?
Its Potency is inconclusive: 22.4 µM [inhibitor, partial curve, poor fit].

Which Potency does the source give for `COc1ccc(C(=O)NCCCSC)cc1OC1CCN(C(C)C)CC1` here?
Its Potency is inconclusive: 12.6 µM [activator, partial curve, poor fit].

For `CCN(CC(=O)Nc1ccc2c(c1)OCCO2)S(=O)(=O)c1ccccc1`, which Potency is on record?
Its Potency is inconclusive: 11.2 µM [activator, single point].

For `COc1ccc(S(=O)(=O)NCc2ccco2)cc1-c1nnc2c3ccccc3c(C)nn12`, which Potency is on record?
The Potency was “inactive”.

Which Potency does the source give for `O=C(Nc1ccc(Cl)cc1F)c1ccccc1Br` here?
The Potency was inconclusive: 6.31 µM [activator, single point].

Which Potency does the source give for `CC1(C)CC(=O)C2=C(C1)Oc1nc3ccccc3cc1C2C(C#N)C#N` (centres undefined) here?
Its Potency is inconclusive: 15.8 µM [inhibitor, partial curve, poor fit].

Which Potency does the source give for `O=C(c1cccc([N+](=O)[O-])c1)N1CCN(c2ccccn2)CC1` here?
Its Potency is inconclusive: 0.1 µM [activator, partial curve, poor fit].

Which “activity change, negative = inhibition” value does the source give for `O=C(CCCC(=O)N/N=C\c1ccccn1)N/N=C\c1ccccn1` here?
The value was inactive: -0.267%.

For `O=C(OCc1ccccc1)N(CCF)c1cn(Cc2ccccc2)c(=O)n(Cc2ccccc2)c1=O`, which Potency is on record?
Its Potency is inconclusive: 17.8 µM [inhibitor, partial curve, poor fit].

For `O=C(NCCC1=CCCCC1)C1CCCN(S(=O)(=O)c2ccccc2)C1` (centres undefined), which Potency is on record?
Its Potency is inconclusive: 35.5 µM [inhibitor, single point].

For `O=C(CSc1nnc(Cc2ccccc2)n1Cc1ccco1)NC12CC3CC(CC(C3)C1)C2`, which Potency is on record?
Its Potency is inconclusive: 14.6 µM [inhibitor, partial curve, poor fit].

With `Oc1ccc(C2Nc3cccc4cccc(c34)N2)c(O)c1` as the compound, how does the “activity change, negative = inhibition” value read?
The value was inactive: -9.77%.

With `CN(NC(=O)c1ccc(Cl)cc1)c1nc(-c2ccccc2)nnc1C(F)(F)F` as the compound, how does the Potency read?
The Potency was inconclusive: 1.12 µM [inhibitor, full curve, poor fit].

Which Potency does the source give for `O=C(N/C(=C\c1cccnc1)c1nc2ccccc2[nH]1)c1cccc(Br)c1` here?
The Potency was inconclusive: 0.562 µM [inhibitor, full curve, poor fit].

For `COc1cc(C(=O)N(C)CC2CCN(CCc3cccc(C(F)(F)F)c3)CC2)ccc1C`, which Potency is on record?
The Potency was inconclusive: 10 µM [inhibitor, partial curve, poor fit].

Which Potency does the source give for `CCN(CC(=O)NCc1cccs1)c1nnnn1-c1ccccc1` here?
Its Potency is inconclusive: 23.1 µM [inhibitor, single point].

With `COc1ccccc1CNC(=O)COn1nnc2ccc(S(=O)(=O)N3CCOCC3)cc21` as the compound, how does the Potency read?
The Potency was inconclusive: 1.41 µM [inhibitor, partial curve, poor fit].

For `CC(=O)Nc1ccc(S(=O)(=O)NCCC(=O)N2CCc3ccccc32)cc1`, which Potency is on record?
The Potency was inconclusive: 5.62 µM [inhibitor, single point].

For `CCOC(=O)CC1=C(C(=O)OCC)C(c2ccc(C)o2)C(C#N)=C(N)O1` (centres undefined), which Potency is on record?
Its Potency is inconclusive: 3.98 µM [inhibitor, single point].

Which Potency does the source give for `N#Cc1ccc(S(=O)(=O)N2CCN(C(=O)C3CC(=O)N(c4ccc5c(c4)OCCO5)C3)CC2)cc1` (centres undefined) here?
Its Potency is inconclusive: 2.51 µM [inhibitor, single point].

Which “activity change, negative = inhibition” value does the source give for `CCCCN(C(=O)/C=C/c1ccco1)c1c(N)n(CCC)c(=O)[nH]c1=O` here?
The value was inactive: -1.97%.

Which Potency does the source give for `CCCCOc1ccc(S(N)(=O)=O)cc1` here?
Its Potency is inconclusive: 14.1 µM [inhibitor, partial curve, poor fit].

For `Cc1cc2c(NCc3ccccc3)ncnc2s1`, which Potency is on record?
The Potency was inconclusive: 12.6 µM [inhibitor, partial curve].

With `O=C(Cc1ccccc1)NN=Cc1ccccc1` as the compound, how does the “activity change, negative = inhibition” value read?
Its value is inactive: 2.44%.

For `Cc1ccc(N(Cc2ccccc2)C(=O)c2cccc(S(=O)(=O)N3CC(C)OC(C)C3)c2)cc1` (centres undefined), which Potency is on record?
Its Potency is inconclusive: 14.1 µM [inhibitor, partial curve, poor fit].

For `Cc1ccc(C)c(OCc2cc(C(=O)NC(c3ccccn3)C(F)(F)F)no2)c1` (centres undefined), which Potency is on record?
Its Potency is inconclusive: 15.8 µM [inhibitor, partial curve, poor fit].

Which “activity change, negative = inhibition” value does the source give for `Cc1ccccc1-n1nc2c(c1NC(=O)c1cc3ccccc3o1)CS(=O)(=O)C2` here?
The value was inactive: -11.7%.

For `CC(=O)c1ccc(OC(=O)CCN2c3ccccc3Sc3ccccc32)cc1`, which “activity change, negative = inhibition” value is on record?
The value was inactive: 3.93%.

Which Potency does the source give for `CN1CCN(c2ccc(-c3cccc(NC(=O)COc4ccccc4)c3)nn2)CC1` here?
The Potency was inconclusive: 28.2 µM [inhibitor, single point].

With `O=[N+]([O-])c1cccc2c(N3CCCC3)ccnc12` as the compound, how does the Potency read?
The Potency was inconclusive: 20 µM [inhibitor, partial curve, poor fit].

With `O=C(NCCc1ccccc1)c1c(F)cccc1F` as the compound, how does the Potency read?
The Potency was inconclusive: 10 µM [inhibitor, partial curve].

Which Potency does the source give for `O=C(CN1C2=NCCCN2c2ccccc21)c1ccc([N+](=O)[O-])cc1` here?
The Potency was inconclusive: 29.1 µM [inhibitor, single point].

Which Potency does the source give for `CCc1ccc(-n2nc3cc(C)c(NC(=O)c4cc(OC)cc(OC)c4)cc3n2)cc1` here?
Its Potency is inconclusive: 3.16 µM [activator, full curve].

Which Potency does the source give for `Cc1ccc(NC(=O)c2sc(C)nc2C)c(C)c1` here?
Its Potency is inconclusive: 8.91 µM [activator, partial curve].

Which Potency does the source give for `CC(C)CCn1nnnc1C(c1ccc(N(C)C)cc1)N1CCN(C(=O)c2ccco2)CC1` (centres undefined) here?
Its Potency is inconclusive: 12.6 µM [inhibitor, partial curve].

With `NCC(O)COCCC12CC3CC(CC(C3)C1)C2` (centres undefined) as the compound, how does the “activity change, negative = inhibition” value read?
The value was inactive: -24.4% [at 46.1 µM].

For `COc1ccc2oc(C(=O)OCC(=O)N3CC(C)OC(C)C3)c(C)c2c1` (centres undefined), which “activity change, negative = inhibition” value is on record?
Its value is inactive: 22.3% [at 46.1 µM].

For `C1CCN=C(Nc2nc3c(s2)CCCC3)CC1`, which Potency is on record?
Its Potency is inconclusive: 2.31 µM [activator, full curve, poor fit].

With `Cc1ccc(CSCC(=O)N(CCC(C)C)c2c(N)n(Cc3ccccc3)c(=O)[nH]c2=O)cc1` as the compound, how does the Potency read?
The Potency was inconclusive: 3.16 µM [inhibitor, full curve].

Which Potency does the source give for `Cc1ccccc1N=Cc1c(O)n(-c2nccs2)c(=O)c2ccccc12` here?
The Potency was inconclusive: 8.91 µM [inhibitor, partial curve, poor fit].

With `CCOc1ccc(NC(=O)CSc2nc3ccccc3c(=O)n2CCNC(C)=O)cc1` as the compound, how does the Potency read?
Its Potency is inconclusive: 29.1 µM [activator, single point].

With `CCCCC(=O)N1CCCC(c2nc3c(nnn3Cc3cc(C)ccc3C)c(=O)[nH]2)C1` (centres undefined) as the compound, how does the “activity change, negative = inhibition” value read?
The value was inactive: -20.1%.

With `COc1cccc(NS(=O)(=O)c2ccc3[nH]cc(C(=O)NCCC(C)C)c(=O)c3c2)c1` as the compound, how does the Potency read?
The Potency was inconclusive: 25.1 µM [inhibitor, single point].

For `CC1CCC(NC(=O)C2c3ccccc3C(=O)N2Cc2cccs2)CC1` (centres undefined), which “activity change, negative = inhibition” value is on record?
The value was inactive: -13.7%.

For `O=C(/C=C/c1ccc(OCCCF)cc1)N1CCN(Cc2ccccc2)CC1`, which Potency is on record?
The Potency was inconclusive: 0.562 µM [inhibitor, full curve, poor fit].

For `CC1Cc2ccccc2N1C(=O)NC1CC(=O)N(c2ccc3c(c2)OCCO3)C1` (centres undefined), which Potency is on record?
The Potency was inconclusive: 6.31 µM [inhibitor, single point].

For `O=C1CSC(=S)N1c1cccc(Br)c1`, which Potency is on record?
Its Potency is inconclusive: 11.2 µM [inhibitor, partial curve, poor fit].

For `O=C(CCN1C(=O)/C(=C\c2ccc(F)cc2)SC1=S)Nc1ccccc1`, which Potency is on record?
Its Potency is inconclusive: 0.501 µM [inhibitor, partial curve, poor fit].

For `Cc1ccc(Cc2nnc3n(-c4cccc(C)c4)nc(C(=O)c4ccccc4)n3c2=O)cc1`, which Potency is on record?
The Potency was inconclusive: 23.1 µM [inhibitor, partial curve, poor fit].

With `CCC(=O)OCc1cc(=O)oc2ccc3ccccc3c12` as the compound, how does the Potency read?
The Potency was inconclusive: 2.24 µM [inhibitor, partial curve, poor fit].

For `Cc1cc(C)c(-c2csc(NC(=O)c3n[nH]c(=O)c4ccccc34)n2)c(C)c1`, which Potency is on record?
The Potency was inconclusive: 1 µM [inhibitor, full curve, poor fit].

For `CCOc1ccc(OCC)c(NC(=O)C(NS(=O)(=O)c2cccs2)c2ccccc2)c1` (centres undefined), which “activity change, negative = inhibition” value is on record?
The value was inactive: 30.4% [at 46.1 µM].

Which Potency does the source give for `CC(SC#N)C(=O)C12CC3CC(CC(C3)C1)C2` (centres undefined) here?
Its Potency is inconclusive: 20 µM [inhibitor, single point].
